We go through 2 molecules from patent US20250074957A1 (GENERAL HOSPITAL, published 2025).

In the assay the target is T1, Split CAR component B2 (BRET) (N-terminal LYN palmitoylation/myristoylation domain (membrane tethering via myristoyl/palmitoylation)).
T1 construct: also called myrCD28c-CRBNΔ3; myrCD28-minCRBN3 (CRBNΔ3)
T1 chain: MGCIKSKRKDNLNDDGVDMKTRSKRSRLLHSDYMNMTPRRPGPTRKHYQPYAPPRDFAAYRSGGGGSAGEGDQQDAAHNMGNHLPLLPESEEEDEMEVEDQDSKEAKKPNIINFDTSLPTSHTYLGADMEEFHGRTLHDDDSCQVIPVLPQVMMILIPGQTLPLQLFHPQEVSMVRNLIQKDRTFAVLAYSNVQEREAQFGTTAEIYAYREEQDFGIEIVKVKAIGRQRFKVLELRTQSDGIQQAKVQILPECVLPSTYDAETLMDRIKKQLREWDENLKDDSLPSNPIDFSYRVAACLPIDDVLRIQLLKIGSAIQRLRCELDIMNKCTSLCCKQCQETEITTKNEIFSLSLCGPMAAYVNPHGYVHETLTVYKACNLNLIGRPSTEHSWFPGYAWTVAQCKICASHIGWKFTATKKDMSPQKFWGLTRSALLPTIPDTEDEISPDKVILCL
The assay is described as follows: NanoBRET in 293T cells, 2 hours of pomalidomide at various concentrations with MG132; the Kd is a pomalidomide concentration, unit not given. The protocol:
Cells were then trypsinized and seeded into 96 well plates, at 40,000 cells per well. The BRET assay was performed per manufacturer's instructions (Promega™). In brief, cells were incubated for 2 hours with varying concentrations of Pomalidomide or DMSO, 10 μM MG132, and 100 nM HaloTag NanoBRET 618 Ligand. NanoBRET Nano-Glo substrate was added and donor (460 nm) and acceptor (618 nm) emission were measured within 10 minutes (EnVision, Perkin Elmer). Mean corrected milliBRET units (mBU) was calculated.

B1: FMC63-CD28-IKZF3 (HaloTag fusion for BRET) (other, not shown: large carriers)
chain: DIQMTQTTSSLSASLGDRVTISCRASQDISKYLNWYQQKPDGTVKLLIYHTSRLHSGVPSRFSGSGSGTDYSLTISNLEQEDIATYFCQQGNTLPYTFGGGTKLEITGSTSGSGKPGSGEGSTKGEVKLQESGPGLVAPSQSLSVTCTVSGVSLPDYGVSWIRQPPRKGLEWLGVIWGSETTYYNSALKSRLTIIKDNSKSQVFLKMNSLQTDDTAIYYCAKHYYYGGSYAMDYWGQGTSVTVSSAAAIEVMYPPPYLDNEKSNGTIIHVKGKHLCPSPLFPGPSKPFWVLVVVGGVLACYSLLVTVAFIIFWVRSKRSRLLHSDYMNMTPRRPGPTRKHYQPYAPPRDFAAYRSSGFNVLMVHKRSHTGERPFQCNQCGASFTQKGNLLRHIKLHTGEKPFKCHLCNYACQRRDAL
notes: also called CD19scFv-CD28-IKZF3; anti-CD19-CD28-IKZF3 wild type (wt)
Take B1: the “Kd (pomalidomide-dependent dimerization)” value was 53.4.

B2: FMC63-CD28-IKZF3 intracellular K0 (iK0) (HaloTag fusion for BRET) (other, not shown: large carriers)
chain: DIQMTQTTSSLSASLGDRVTISCRASQDISKYLNWYQQKPDGTVKLLIYHTSRLHSGVPSRFSGSGSGTDYSLTISNLEQEDIATYFCQQGNTLPYTFGGGTKLEITGSTSGSGKPGSGEGSTKGEVKLQESGPGLVAPSQSLSVTCTVSGVSLPDYGVSWIRQPPRKGLEWLGVIWGSETTYYNSALKSRLTIIKDNSKSQVFLKMNSLQTDDTAIYYCAKHYYYGGSYAMDYWGQGTSVTVSSAAAIEVMYPPPYLDNEKSNGTIIHVKGKHLCPSPLFPGPSKPFWVLVVVGGVLACYSLLVTVAFIIFWVRSRRSRLLHSDYMNMTPRRPGPTRRHYQPYAPPRDFAAYRSSGFNVLMVHRRSHTGERPFQCNQCGASFTQRGNLLRHIRLHTGERPFRCHLCNYACQRRDAL
notes: no signal peptide limits are stated for this entry; also called iK0 split receptor
Regarding B2, the “Kd (pomalidomide-dependent dimerization)” value was found to be 46.3.
